Measured values: PubChem BioAssay AID540276 (National Center for Advancing Translational Sciences (NCATS), 2011)
Among all 300,000 compounds or so, about 5,400 (1.8%) were called active. Inconclusive results, whose numbers are uncertain, are shown with a selection of clear calls. Calls follow the shape of the full dose curve; tested in HEK293 cells. A potency beside an inconclusive call is a rough fit, not a confirmed value.

test: qHTS for inhibitors of binding or entry into cells for Marburg Virus; settings: Marburg virus pseudotyped entry inhibition, cell reporter; activity change, negative = inhibition: at 37.8 µM (top of the series) unless noted
% is scaled to controls: 0 for no effect and ±100 for the full control effect; potency is read from the fitted curve at half-maximal effect.

Q: Which Potency does the source give for Nc1nc(=S)c2ncn(C3OC(CO)C(O)C3O)c2[nH]1 (configuration not stated) here?
A: inconclusive: 6.31 µM [inhibitor, partial curve, poor fit]

Q: With Cc1ccc(NNC(=S)Nc2ccc(C(C)C)cc2)c(C)c1 as the compound, how does the Potency read?
A: inconclusive: 2.51 µM [inhibitor, partial curve, poor fit]

Q: Which Potency does the source give for C/C(=N/NC(=O)c1ccoc1C)c1cccc(NC(=O)C2CC2)c1 here?
A: inconclusive: 29.1 µM [inhibitor, single point]

Q: Which Potency does the source give for O=C1CCC(C(=O)N(Cc2cccs2)C2(C(=O)NC3CCCCC3)CCCCC2)N1 (configuration not stated) here?
A: inconclusive: 0.251 µM [inhibitor, partial curve, poor fit]

Q: For CN(/N=C/c1cccnc1)c1cnc2ccccc2n1, which Potency is on record?
A: inactive

Q: For CC(C)C(=O)Nc1nnc(CCN2CCCCC2)s1, which Potency is on record?
A: inactive

Q: For S=c1[nH]ncn2c1cc1oc3ccccc3c12, which Potency is on record?
A: inactive

Q: For Cc1cc(Br)ccc1NC(=O)CN(C)C(=O)CN1C(=O)NC2(CCCC2)C1=O, which Potency is on record?
A: inactive

Q: Which Potency does the source give for Cc1ccccc1NC(=O)Cn1c(CCC(=O)O)ccc1-c1cccs1 here?
A: inactive

Q: For CSc1ccc(C(=O)N2CCC(n3nccc3NC(=O)C3CC3)CC2)cc1, which Potency is on record?
A: inactive

Q: Which Potency does the source give for CC(C)(C)NC(=O)c1ccc(Cn2cc(C(F)(F)F)ccc2=O)cc1 here?
A: inconclusive: 25.1 µM [activator, single point]

Q: For O=C(COc1ccccc1)Nc1sc2c(c1C(=O)NCc1cccnc1)CCCC2, which Potency is on record?
A: inconclusive: 11.6 µM [inhibitor, partial curve]

Q: For O=C(NCc1ccc(F)cc1)C(=O)NCC1OCCN1C(=O)c1cccs1 (configuration not stated), which Potency is on record?
A: inconclusive: 4.61 µM [inhibitor, single point]

Q: With Cn1cc(Br)c(-c2cccc(NC(=O)CC(C)(C)CC(=O)O)c2)n1 as the compound, how does the Potency read?
A: inactive

Q: With O=C(CN1CCN(C2CCCCC2)CC1)Nc1ccc(Br)cc1 as the compound, how does the Potency read?
A: inactive

Q: For COC(=O)C(CCSC)NC(=O)c1cc2c(n(-c3ccccc3)c1=O)CCCC2=O (configuration not stated), which Potency is on record?
A: inconclusive: 3.98 µM [inhibitor, single point]

Q: With CNC(=S)N1N=C2c3ccccc3CCC2C1c1ccccc1Cl (configuration not stated) as the compound, how does the Potency read?
A: inactive

Q: Which Potency does the source give for CSc1nc(Sc2ccccc2)c2ccccc2n1 here?
A: inconclusive: 2.82 µM [activator, partial curve, poor fit]

Q: For CC(C)(C)C1CCc2nc(NC(=O)Cc3ccc(Cl)cc3)sc2C1 (configuration not stated), which Potency is on record?
A: inconclusive: 5.62 µM [activator, single point]

Q: Which Potency does the source give for COc1ccc(/C=N/NC(=O)c2nn(C)cc2Br)cc1CSCc1ccco1 here?
A: inactive

Q: For CCCn1c(N)c(C(=O)CSc2nnc(Cc3ccccc3)o2)c(=O)n(C)c1=O, which Potency is on record?
A: inconclusive: 7.3 µM [inhibitor, partial curve, poor fit]

Q: For NNc1nnc2c3cc(F)ccc3n(CCc3ccccc3)c2n1, which Potency is on record?
A: active: 10 µM

Q: With Cn1c(=O)c2c(nc(SCCN3CCOCC3)n2Cc2ccccc2)n(C)c1=O as the compound, how does the Potency read?
A: active: 1.12 µM

Q: Which Potency does the source give for O=C(/C=C/c1ccc(Cl)c(Cl)c1)NCCCn1ccnc1 here?
A: inconclusive: 14.1 µM [activator, single point]

Q: For O=C(NC(=S)NCc1ccc2c(c1)OCO2)c1ccccc1, which Potency is on record?
A: inconclusive: 0.259 µM [inhibitor, full curve, poor fit]

Q: With CCCCc1ncc(CN2CCC(CC3CCCCO3)(C(=O)OCC)CC2)[nH]1 (configuration not stated) as the compound, how does the Potency read?
A: inconclusive: 10 µM [inhibitor, partial curve, poor fit]

Q: For O=C(Cn1nc(C(=O)O)c2ccccc2c1=O)Nc1ccccc1C(F)(F)F, which Potency is on record?
A: inconclusive: 0.631 µM [inhibitor, full curve, poor fit]

Q: Which Potency does the source give for N=c1c(C(=O)NCCN2CCOCC2)cc2c(=O)n3ccccc3nc2n1CCc1ccccc1 here?
A: inconclusive: 6.31 µM [inhibitor, partial curve, poor fit]

Q: With COc1cc2c(cc1NC(=O)COc1ccc3ccccc3c1)oc1ccccc12 as the compound, how does the Potency read?
A: inconclusive: 0.0058 µM [inhibitor, full curve, poor fit]

Q: Which Potency does the source give for CN(C)S(=O)(=O)N1CCC(Oc2cccc(C(=O)NCCC3=CCCCC3)c2)CC1 here?
A: inconclusive: 11.2 µM [inhibitor, partial curve, poor fit]

Q: With NC(=O)c1ccccc1NC(=S)NC(=O)CCc1ccccc1 as the compound, how does the Potency read?
A: inconclusive: 0.447 µM [inhibitor, full curve, poor fit]

Q: For COc1cccc(/C=C/C(=O)Nc2ccc(N3CCOCC3)cc2)c1OC, which Potency is on record?
A: inconclusive: 7.08 µM [activator, full curve, poor fit]

Q: Which Potency does the source give for CCn1c(CC(=O)Nc2ccc(Cl)c(Cl)c2)nnc1SCc1ccc(Cl)cc1 here?
A: inactive

Q: For Cc1ccc(CSc2nnc(NC(=O)C3COc4ccccc4O3)s2)cc1 (configuration not stated), which Potency is on record?
A: inactive

Q: Which Potency does the source give for C/C(=N\NC(=S)Nc1c(C)cccc1C)c1ccc(OC(F)F)cc1 here?
A: inconclusive: 8.2 µM [inhibitor, partial curve, poor fit]

Q: Which Potency does the source give for O=S(=O)(Nc1ccc(Cc2ccncc2)cc1)c1ccc(Br)cc1 here?
A: inconclusive: 25.9 µM [inhibitor, partial curve, poor fit]

Q: For CCOC(=O)C1=C(C)N(c2ccccc2)C(=O)C1, which Potency is on record?
A: inactive

Q: For O=C(Cc1cccs1)N/N=C/C=C\c1ccco1, which Potency is on record?
A: inactive

Q: Which Potency does the source give for S=C(NCCCc1ccccc1)NCc1ccccc1 here?
A: inconclusive: 6.31 µM [activator, single point]

Q: With CC[C@@]1(C)Cc2ccccc2-c2nc(NCCO)n(-c3ccccc3)c(=O)c21 as the compound, how does the Potency read?
A: inconclusive: 16.4 µM [activator, single point]

Q: For Cc1ccc(-n2c(C)cc(C(=O)COC(=O)c3ccc[nH]c3=O)c2C)cc1C, which Potency is on record?
A: inconclusive: 35.5 µM [inhibitor, single point]

Q: With CCCCC(CC)Cn1c(O)c(/C=C2\C=NN=C2c2ccccc2)sc1=S (configuration not stated) as the compound, how does the Potency read?
A: inconclusive: 35.5 µM [inhibitor, single point]

Q: For O=C(c1cc2cc3ccc(Cl)cc3nc2o1)N1CCCCCC1, which activity change, negative = inhibition is on record?
A: inconclusive: 46.1% [activator] [at 46.1 µM]

Q: Which Potency does the source give for O=C(CCCN1C(=O)/C(=C/c2cccs2)SC1=S)Nc1cccc(O)c1 here?
A: inconclusive: 7.08 µM [inhibitor, partial curve, poor fit]

Q: Which Potency does the source give for Cc1ccc(Nc2c(-c3ccc(C)cc3)nc3cnccn23)cc1 here?
A: inconclusive: 20 µM [inhibitor, partial curve, poor fit]

Q: For O=c1[nH]c(=O)n(Cc2ccco2)c(O)c1C=NCc1ccc2c(c1)OCO2, which Potency is on record?
A: inactive

Q: Which Potency does the source give for COc1ccccc1C(CNC(=O)c1ccc(NS(=O)(=O)c2ccc3c(c2)OCCO3)cc1)N(C)C (configuration not stated) here?
A: inactive

Q: For Cc1cccc(NCc2ccc(N(C)C)cc2)n1, which Potency is on record?
A: inconclusive: 0.562 µM [activator, full curve, poor fit]

Q: For COC(=O)C1=CN(c2ccc(F)c(F)c2)C=C(C(=O)OC)C1c1ccc([N+](=O)[O-])cc1, which Potency is on record?
A: inconclusive: 0.891 µM [inhibitor, full curve, poor fit]

Q: For N/C(=N/OCc1cccc([N+](=O)[O-])c1)c1nonc1N, which Potency is on record?
A: inactive

Q: With Cc1ccc(Nc2ncccc2C(N)=O)cc1[N+](=O)[O-] as the compound, how does the Potency read?
A: inconclusive: 0.631 µM [activator, full curve, poor fit]

Q: Which Potency does the source give for O=C(Nc1ccc(F)cc1F)C1CCCN(c2ncnc3c2nc2n3CCCCC2)C1 (configuration not stated) here?
A: inconclusive: 3.16 µM [inhibitor, partial curve, poor fit]

Q: Which Potency does the source give for COc1ccccc1NC(=O)C(C)OC(=O)/C(=C/c1ccccc1)NC(C)=O (configuration not stated) here?
A: inconclusive: 0.355 µM [activator, partial curve, poor fit]

Q: With Cc1cc(NC(=O)C2COc3ccccc3O2)no1 (configuration not stated) as the compound, how does the Potency read?
A: inactive

Q: With CCN(CC)C(=S)SSC(=S)N(CC)CC as the compound, how does the Potency read?
A: active: 3.55 µM

Q: For CCCCN(C)CCNC(=O)c1cn(C)c(=O)c2c1c1ccccc1n2C, which Potency is on record?
A: active: 11.2 µM

Q: Which Potency does the source give for COc1ccc(N2C[C@H](C)[C@@H](CC(=O)Nc3ccc(Br)cc3)C2=O)cc1 here?
A: inconclusive: 25 µM [inhibitor, single point]

Q: Which Potency does the source give for N=C1CCCN1CC(=O)c1ccc(Br)cc1 here?
A: inconclusive: 3.16 µM [activator, full curve]

Q: With COc1ccc(/C=C/C(=O)C2C(=O)C=C(C)OC2=O)cc1O (configuration not stated) as the compound, how does the Potency read?
A: inactive

Q: For CCOc1ccc(C(=O)Nc2ccc3c(c2)OCCO3)cc1[N+](=O)[O-], which Potency is on record?
A: inactive

Q: For S=C(NCCCN1CCOCC1)Nc1cccc(Cl)c1, which Potency is on record?
A: inactive

Q: For O=C(c1ccc(NC(=S)Nc2ccc(Cl)c(Cl)c2)cc1)N1CCCC1, which Potency is on record?
A: inactive

Q: For COCCn1c(C)cc(C(=O)COC(=O)C23CC4CC(CC(O)(C4)C2)C3)c1C, which Potency is on record?
A: inconclusive: 0.164 µM [activator, partial curve]

Q: Which Potency does the source give for N#C/C(=C\c1ccc(N2CCOCC2)o1)c1ccccc1 here?
A: inconclusive: 0.517 µM [activator, full curve]

Q: With COc1cc(C)ccc1OCc1cc(C(=O)NCCN2CCCC(O)C2)no1 (configuration not stated) as the compound, how does the Potency read?
A: inactive

Q: Which Potency does the source give for CCOC(=O)CN1C(=O)C(Sc2n[nH]c(-c3ccc(C)cc3)n2)CCc2ccccc21 (configuration not stated) here?
A: inconclusive: 29.1 µM [inhibitor, single point]

Q: Which Potency does the source give for COc1ccccc1/C=C/C=N/n1c(-c2ccncc2)n[nH]c1=S here?
A: inconclusive: 0.0891 µM [inhibitor, full curve, poor fit]

Q: With Cc1cc(N2CCOCC2)nc2ccc(NC(=S)N3CCCCC3C)cc12 (configuration not stated) as the compound, how does the Potency read?
A: active: 2.82 µM

Q: With COc1cc(CNC2CCCC2)c(Br)cc1OC1CCCC1 as the compound, how does the Potency read?
A: inconclusive: 35.5 µM [inhibitor, single point]

Q: With c1cc2c(cc1-n1cnnn1)OCO2 as the compound, how does the Potency read?
A: inactive

Q: Which Potency does the source give for O=C(Nc1nnc(-c2ccccc2F)s1)Nc1ccccc1F here?
A: inconclusive: 6.31 µM [activator, single point]

Q: With Cc1nn(C)c(C)c1NC(=O)CCCSc1nc(-c2ccco2)cc(C(F)(F)F)n1 as the compound, how does the Potency read?
A: inconclusive: 35.5 µM [inhibitor, single point]
